Measurements reported in the supplement of paper PMC7125110.
± gives the standard error. Many of these values have a large error.

B1: glmS ribozyme (parent)
chain: AUAAAAGCGCCAGAACUACAGAAAUGUAGUUGACGAGGAGGAGGUUUAUCGAAUUUUCGGCGGAUGCCUCCAAA

Variants of: B1
Assay: KM; higher = weaker cofactor use; RNA array
Conditions: with glucosamine-6-phosphate
In short: (§1)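 A hybridised Cy3 probe tracked barcoded ribozyme variants, transcribed in situ by E. coli RNA polymerase on sequenced MiSeq chips, at 37 °C. The variants received 40 μM to 10 mM glucosamine-6-phosphate in HEPES/KCl/Mg(OAc)2 buffer. kobs came from decay fits and kcat and KM from weighted Michaelis–Menten fits.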
AUAAAAGCGCCAGUACUACAGAAAUGUAGUGGACGAGGAGGAGGUUUAUCGAAUUUUCGGCGGGUGCCUCCAAA [A14U U31G A64G] was tested, and the KM was 3010 ± 1600 µM.
In the case of AUAAAAGCGCCAGUACUACAGAAAUGUAGUUGACGAGGAGGAGGUAUAUCGAAUUUUCGGCGGAUGCCUCCAAA [A14U U46A], the KM is reported as 2000 ± 930 µM.
Work on AUAAAAGCGCCAGUACUACAGAAAUGUAGUUGACGAGGAGGAGGUCUAUCGAAUUUUCGGCGGAUGCCUCCAAA [A14U U46C] yielded a KM of 956 ± 430 µM.
With AUAAAAGCGCCAGUACUACAGAAAUGUAGUUGACGAGGAGGAGGUUUAUCGAAUUAUCGGCGGAUGCCUCCAAA [A14U U56A] the KM was 2190 ± 1400 µM.
In the case of AUAAAAGCGCCAGACCUACAGAAAUGUAGUUGACGAGGAGGAGGUUUAUCGAAUUUUCGGCGGAUGACUCCAAA [A15C C67A], the KM is reported as 778 ± 490 µM.
AUAAAAGCGCCAGACCUACAGAAAUGUAGUUGACGAGGAGGAGGUUUAUCGAAUUUUCGGCGGAUGGCUCCAAA [A15C C67G] showed a KM of 1530 ± 22 µM.
Work on AUAAAAGCGCCAGACCUACAGAAAUGUAGUUUACGAGGAGGAGGUUUAUCGAAUUUUCGGCGGAUGCCUCCAAA [A15C G32U] yielded a KM of 6690 ± 540 µM.
AUAAAAGCGCCAGAGCUACAGAAAUGUAGUUGACGAGGGGGAGGUUUAUCGAAUUUUCGGCGGAUGCCUCCAAA [A15G A39G] was tested, and the KM was 792 ± 410 µM.
AUAAAAGCGCCAGAGCUACAGAAAUGUAGUUGACGAGGAGGAGGUUUAUCGAAUUUUCGGCGGAUGACUCUAAA [A15G C67A C71U] showed a KM of 421 ± 260 µM.
AUAAAAGCGCCAGAGCUACAGAAAUGUAAUUGACGAGGAGGAGGUUUAUCGAAUUUUCGGCGGAUGCCUCCAAA [A15G G29A] showed a KM of 833 ± 570 µM.
AUAAAAGCGCCAGAGCUACAGAAAUGUAGUUGACGAAGAGGAGGUUUAUCGAAUUUUCGGCGGAUGCCUCCAAA [A15G G37A] was tested, and the KM was 2670 ± 1600 µM.
For AUAAAAGCGCCAGAGCUACAGAAAUGUAGUGGACGAGGUGGAGGUUUAUCGAAUUUUCGGCGGAUGCCUCCAAA [A15G U31G A39U], the KM was 5090 ± 3000 µM.
For AUAAAAGCGCCAGAGCUACAGAAAUGUAGUUGACGAGGAGGAGGUGUAUCGAAUUUUCGGCGGAUGCCUCCAAA [A15G U46G], the KM was 2020 ± 170 µM.
Work on AUAAAAGCGCCAGAGCUACAGAAAUGUAGUUGACGAGGAGGAGGUUUAUCGAAUUAUCGGCGGAUGCCUCCAAA [A15G U56A] yielded a KM of 1700 ± 790 µM.
Work on AUAAAAGCGCCAGAGCUACAGAAAUGUAGUUGACGAGGAGGAGGUUUAUCGAAUUUCAGGCGGAUGCCUCCAAA [A15G U57C C58A] yielded a KM of 1230 ± 1100 µM.
AUAAAAGCGCCAGAUCUACAGAAAUGUAGUUGACGAGGAGGAGGUUUAUCGAAUUUUCGGCGGAUGCCUCCAAA [A15U] was tested, and the KM was 1950 ± 440 µM.
Work on AUAAAAGCGCCAGAUCUACAGAAAUGUAGUUGACGAGGAGGAGGUUUAUCGAAUUUUCGGCGGAUGUCUCCAAA [A15U C67U] yielded a KM of 1920 ± 970 µM.
AUAAAAGCGCCAGAUCUACAGAAAUGUAGUUGACGAGGAGGAGGUUUAUCGAAUUUUCGGCGGAUGCCUCGAAA [A15U C71G] was tested, and the KM was 1610 ± 810 µM.
AUAAAAGCGCCAGAUCUACAGAAAUGUAAUUGACGAGGAGGAGGUUUAUCGAAUUUUCGGCGGAUGCCUCCAAA [A15U G29A] was tested, and the KM was 5560 ± 3500 µM.
AUAAAAGCGCCAGAUCUACAGAAAUGUAGUUUACGAGGAGGAGGUUUAUCGAAUUUUCGGCGGAUGUCUCCAAA [A15U G32U C67U] gave a KM of 11600 ± 5800 µM.
With AUAAAAGCGCCAGAUCUACAGAAAUGUAGUUGACGAGGAUGAGGUUUAUCGAAUUUUCGGCGGAUGCCUCCAAA [A15U G40U] the KM was 1170 ± 710 µM.
AUAAAAGCGCCAGAUCUACAGAAAUGUAGUUGACGAGGAGGAGAUUUAUCGAAUUUUCGGCGGAUGCCUCCAAA [A15U G44A] gave a KM of 2790 ± 140 µM.
AUAAAAGCGCCAGAUCUACAGAAAUGUAGUUGACGAGGAGGAGGUUUAGCGAAUUUUCGGCGGAUGCCUCCAAA [A15U U49G] gave a KM of 1730 ± 470 µM.
In the case of AUAAAAGCGCCAGAUCUACAGAAAUGUAGUUGACGAGGAGGAGGUUUAUCGAAUUUUCGGCGGACGCCUCCAAA [A15U U65C], the KM is reported as 143 ± 97 µM.
For AUAAAAGCGCCAGAUCUACAGAAAUGUAGUUGACGAGGAGGAGGUUUAUCGAAUUUUCGGCGGAGGCCUCCAAA [A15U U65G], the KM was 3770 ± 2000 µM.
With AUAAAAGCGCCAGAAAUACAGAAAUGUAGUUGACGAGGAGGAGGUUUAUCGAUUUUUCGGCGGAUGCCUCCAAA [C16A A53U] the KM was 3690 ± 2400 µM.
With AUAAAAGCGCCAGAAAUACAGAAAUGUAGUUGACGAGGAGGAGGUUUAUCGAAUUUUCGGCGGAUGCCUCUAAA [C16A C71U] the KM was 509 ± 470 µM.
Work on AUAAAAGCGCCAGAAAUACAGAAAUGUAGUUAACGAGGAGGAGGUUUAUCGAAUUUUCGGCGGAUGCCUCCAAA [C16A G32A] yielded a KM of 5210 ± 4500 µM.
In the case of AUAAAAGCGCCAGAAAUACAGAAAUGUAGUUGACGAGGAGGAGGUUUAUCGAAUUUUCGGCGGAUACCUCCAAA [C16A G66A], the KM is reported as 4130 ± 370 µM.
Work on AUAAAAGCGCCAGAAGUACAGAAAUGUAGUUGACGAGGAGGAGGUUUAUCGAUUUUUCGGCGGAUGCCUCCAAA [C16G A53U] yielded a KM of 1910 ± 380 µM.
Variant AUAAAAGCGCCAGAAGUACAGAAAUGUAGUUGACGAGGAGGAGGUUUAUCGAAUUUUCGGCGGAUGCCUUCAAA [C16G C70U] has a KM of 182 ± 110 µM.
In the case of AUAAAAGCGCCAGAAGUACAGAAAUGUAGUGGACGAGGAGGAGGUUUAUCGAAUUUUCGGCGGAUGCCUCCAAA [C16G U31G], the KM is reported as 2360 ± 940 µM.
Work on AUAAAAGCGCCAGAAGUACAGAAAUGUAGUUGACGAGGAGGAGGAUUAUCGAAUUUUCGGCGGAUGCCUCCAAA [C16G U45A] yielded a KM of 2340 ± 1100 µM.

Variants of: B1
Assay: self-cleavage kobs at 40 uM GlcN6P; higher = faster cleavage; RNA array
Conditions: with glucosamine-6-phosphate
In short: as §1
For AUAAAAGCGCCAGAUCUACAGAAAUGUAGUUGACGAGGAGGAGGUUUAUCGAAUUUUCGGCGGAUGCCUCGAAA [A15U C71G], the “self-cleavage kobs at 40 uM GlcN6P” value was 1.97e-05 ± 1e-05 s⁻¹.
In the case of AUAAAAGCGCCAGAUCUACAGAAAUGUAAUUGACGAGGAGGAGGUUUAUCGAAUUUUCGGCGGAUGCCUCCAAA [A15U G29A], the “self-cleavage kobs at 40 uM GlcN6P” value is reported as 2.42e-05 ± 1.2e-05 s⁻¹.
AUAAAAGCGCCAGAAAUACAGAAAUGUAGUUGACGAGGAGGAGGUUUAUCGAUUUUUCGGCGGAUGCCUCCAAA [C16A A53U] was tested, and the “self-cleavage kobs at 40 uM GlcN6P” value was 1.9e-05 ± 1.7e-05 s⁻¹.

Variants of: B1
Assay: self-cleavage kobs at 2500 uM GlcN6P; higher = faster cleavage; RNA array
Conditions: with glucosamine-6-phosphate
In short: as §1
In the case of AUAAAAGCGCCAGAUCUACAGAAAUGUAGUUGACGAGGAGGAGAUUUAUCGAAUUUUCGGCGGAUGCCUCCAAA [A15U G44A], the “self-cleavage kobs at 2500 uM GlcN6P” value is reported as 1.75e-05 ± 1.6e-05 s⁻¹.
